# Screening data, single-dose tests

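Phenotypic screen: M. tuberculosis growth, cholesterol and DPPC medium, 4 days; the read-out is not stated. Tested at 50 µM. Higher reads as more growth inhibition (inferred: compounds with an IC50 in retests scored well above the rest). Of about 69,000 compounds tested this way, about 370 (0.54%) reached 50% or more in at least one test.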

Values are the deposited “Percent Effect”, in %.
How 0% and 100% were set is not recorded. Most values in the screen are low, and negative values occur.
The compounds are a random part of those screened.
Two or more numbers in one place are separate tests of the same structure; such repeats can differ widely.

Result for CCOc1ncccc1CNC(=O)Nc1ccc(OC)c(OC)c1 was -14.63%. CCc1nc(C2CCCN2CCn2cncn2)no1 (stereo not drawn) read 4.351%. With CCC(CC)C(=O)NC1CCCc2nc(N3CCOCC3)ncc21 (stereo not drawn) the screen gave -4.061%. CO[C@H]1CN(c2ccccc2)S(=O)(=O)[C@@]12CCN(Cc1ccccc1)C2 gave -15.82%. Cn1cnc2cc(CCC(=O)Nc3n[nH]c(C4CC4)n3)ccc21 read 0.7399%. Result for CCc1nc(C(=O)N2CCN(Cc3ccc(Cl)cc3)CC2)c[nH]1 was 5.286%. With CCCc1cc(NCCC2CCCOC2)n2nccc2n1 (stereo not drawn) the screen gave -18.68%. Cc1cccc(CN2CCCCC23CCNC3)n1.O=C(O)C(F)(F)F.O=C(O)C(F)(F)F (stereo not drawn) gave -7.591%.

With N#CCCn1cnc2c(Br)cccc2c1=O the screen gave -10.35%. Result for COc1ccc2c(c1)OCC(C(=O)NCc1ncc3c(n1)CCC3)C2 (stereo not drawn) was -9.371%. For [H][C@]12CCC(=O)N(c3ccccc3)[C@@]1([H])CCN2C(=O)N1CCOCC1 the result was -6.232%. CCOC(=O)N[C@H]1C[C@@H](C(=O)NCc2cccc(Cl)c2)N(C)C1 gave 12.39%. With CN(C)c1ncccc1CNC(=O)N1CCCC1c1ccsc1 (stereo not drawn) the screen gave -16.37%. O=C(c1cc(F)ccc1F)C1CCN(C(=O)c2cccnc2O)CC1 read -11.93%. For CCc1nnc2n1CCN(C(=O)CN(C)C1CC1)C2 the result was -0.3902%. With CCN(C)c1ncnc2c1CCN(C(=O)c1cnccn1)CC2.O=C(O)C(F)(F)F the screen gave -18.73%.

With Cc1cc2ccncc2n1CC1(O)CCN(C(=O)c2ccncc2)CC1 the screen gave 4.999%. Cc1ccc(C)c(S(=O)(=O)CCN2CCCC2Cn2cccn2)c1 (stereo not drawn) gave 7.99%. COCc1cc(N(CC(F)F)C2CC2)n2ncnc2n1 read 16.86%. With CN(Cc1nc(-c2ccccc2)c[nH]1)C(=O)NCC(=O)NC(C)(C)C the screen gave 0.1199%. For CCn1ncc(S(=O)(=O)N[C@@H]2CC[C@@H](n3ccnc3)[C@@H]2O)c1C the result was -18.59% and 6.005%. With Cc1ccc(NC(=O)[C@@H]2C[C@H](C(=O)O)CN(Cc3sccc3C)C2)cn1 the screen gave -8.896%. Result for CCC1(C)Cc2ccccc2-c2nc(NCCCO)nc(O)c21 (stereo not drawn) was 2.161%. With CCOC1CCN(C(=O)NCCc2ccn(-c3ccccc3)n2)CC1 the screen gave 4.943%.

Result for Nc1nc(N)c2c(n1)OC1(CCCN(Cc3nccs3)CC1)C2 (stereo not drawn) was 8.981% and -0.6322%. CC(=O)N1N=C(c2ccccc2)OC1C(=O)N(C)Cc1ccccc1 (stereo not drawn) read -10.34%. With Clc1snnc1CN1CCN(c2nccs2)CC1 the screen gave -4.548%. For Cc1cc(C(=O)N2CCN(C)CC2)nn1CC(=O)NCc1ccccn1.Cl the result was 4.517%. For O=C(O)C(F)(F)F.[H][C@]12CCC[C@@]1(COCc1ccccn1)CN(S(=O)(=O)C1CC1)C2 the result was -3.413%. With CC(Nc1ccc(F)cc1)c1nnnn1-c1ccccc1 (stereo not drawn) the screen gave 7.588%.

2 of the entries, repeated:

{"compound": "CCOC1CCN(C(=O)NCCc2ccn(-c3ccccc3)n2)CC1", "percent effect": 4.943}
{"compound": "O=C(O)C(F)(F)F.[H][C@]12CCC[C@@]1(COCc1ccccn1)CN(S(=O)(=O)C1CC1)C2", "percent effect": -3.413}

Source: ChEMBL document CHEMBL3988442, “University of Dundee, Small-Polar-MMV Screening Library” (2021).